{"source": "PubChem BioAssay AID504808 (Drosophila RNAi Screening Center, 2011)", "screen": "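Genes whose loss lifts activity of an E2F-responsive reporter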 (primary screen)", "cell system": "Drosophila S2 cells", "reagent": "long dsRNA against Drosophila genes", "read-out": "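Firefly luciferase driven by E2F sites, normalised to Renilla luciferase on the same minimal promoter, measured by plate reader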", "scale": "E2F firefly: higher = more E2F reporter activity; Renilla normaliser: higher = more normaliser reporter signal", "call rule": "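Called active if the normalised E2F reporter went up by over 50%; the cutoff is arbitrary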", "note": "In all, the deposit lists about 21,000 reagents; below is an unselected part of those that have a named target and a result. Of all reagents, 18 (0.084%) got an active call. 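Raw counts without plate normalisation, one of two replicates; the ratio scores behind the calls were not deposited.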 The numbers tell different reagents against one gene apart. Not given: the amount of reagent, the time to read-out."}
{"gene":"CG13605","reagent no.":1,"E2F firefly, rep 1":79353,"Renilla normaliser, rep 1":3974,"activity call":"inactive"}
{"gene":"Jhbp12","reagent no.":1,"E2F firefly, rep 1":1.08e5,"Renilla normaliser, rep 1":5629,"activity call":"inactive"}
{"gene":"CG11269","reagent no.":1,"E2F firefly, rep 1":1.11e5,"Renilla normaliser, rep 1":4349,"activity call":"inactive"}
{"gene":"CG14950 (retired record)","reagent no.":1,"E2F firefly, rep 1":1.01e5,"Renilla normaliser, rep 1":4148,"activity call":"inactive"}
{"gene":"Cln3","reagent no.":1,"E2F firefly, rep 1":1.51e5,"Renilla normaliser, rep 1":7788,"activity call":"inactive"}
{"gene":"CG43867","reagent no.":1,"E2F firefly, rep 1":82581,"Renilla normaliser, rep 1":2308,"activity call":"inactive"}
{"gene":"CG43867","reagent no.":2,"E2F firefly, rep 1":1.25e5,"Renilla normaliser, rep 1":5999,"activity call":"inactive"}
{"gene":"CG43867","reagent no.":3,"E2F firefly, rep 1":61914,"Renilla normaliser, rep 1":4408,"activity call":"inactive"}
{"gene":"CG43867","reagent no.":4,"E2F firefly, rep 1":40573,"Renilla normaliser, rep 1":3581,"activity call":"inactive"}
{"gene":"RpL4","reagent no.":1,"E2F firefly, rep 1":1325,"Renilla normaliser, rep 1":1044,"activity call":"inactive"}
{"gene":"PGS1","reagent no.":1,"E2F firefly, rep 1":1.58e5,"Renilla normaliser, rep 1":7372,"activity call":"inactive"}
{"gene":"spict","reagent no.":1,"E2F firefly, rep 1":78032,"Renilla normaliser, rep 1":3856,"activity call":"inactive"}
{"gene":"CG1971","reagent no.":1,"E2F firefly, rep 1":1773,"Renilla normaliser, rep 1":992,"activity call":"inactive"}
{"gene":"CG8958","reagent no.":1,"E2F firefly, rep 1":1.57e5,"Renilla normaliser, rep 1":6652,"activity call":"inactive"}
{"gene":"CG4440","reagent no.":1,"E2F firefly, rep 1":87220,"Renilla normaliser, rep 1":3898,"activity call":"inactive"}
{"gene":"CG2218","reagent no.":1,"E2F firefly, rep 1":1687,"Renilla normaliser, rep 1":936,"activity call":"inactive"}
{"gene":"Dis3","reagent no.":1,"E2F firefly, rep 1":47777,"Renilla normaliser, rep 1":3327,"activity call":"inactive"}
{"gene":"RpL10Aa","reagent no.":1,"E2F firefly, rep 1":69836,"Renilla normaliser, rep 1":6211,"activity call":"inactive"}
{"gene":"CG3500","reagent no.":1,"E2F firefly, rep 1":1.11e5,"Renilla normaliser, rep 1":5183,"activity call":"inactive"}
{"gene":"Ssadh","reagent no.":1,"E2F firefly, rep 1":1932,"Renilla normaliser, rep 1":1072,"activity call":"inactive"}
{"gene":"l(2)k09848","reagent no.":1,"E2F firefly, rep 1":84204,"Renilla normaliser, rep 1":3882,"activity call":"inactive"}
{"gene":"Atg101","reagent no.":1,"E2F firefly, rep 1":1.35e5,"Renilla normaliser, rep 1":8452,"activity call":"inactive"}
{"gene":"GstE14","reagent no.":1,"E2F firefly, rep 1":98250,"Renilla normaliser, rep 1":4500,"activity call":"inactive"}
{"gene":"Hakai","reagent no.":1,"E2F firefly, rep 1":70078,"Renilla normaliser, rep 1":3161,"activity call":"inactive"}
{"gene":"CG33777","reagent no.":1,"E2F firefly, rep 1":1.27e5,"Renilla normaliser, rep 1":4044,"activity call":"inactive"}
{"gene":"CG4461","reagent no.":1,"E2F firefly, rep 1":1.16e5,"Renilla normaliser, rep 1":5960,"activity call":"inactive"}
{"gene":"CG15800","reagent no.":1,"E2F firefly, rep 1":1.04e5,"Renilla normaliser, rep 1":4642,"activity call":"inactive"}
{"gene":"p38b","reagent no.":1,"E2F firefly, rep 1":1.05e5,"Renilla normaliser, rep 1":4070,"activity call":"inactive"}

A portion taken from the entries so far, for reference:
{"gene":"CG43867","reagent no.":4,"E2F firefly, rep 1":40573,"Renilla normaliser, rep 1":3581,"activity call":"inactive"}
{"gene":"RpL4","reagent no.":1,"E2F firefly, rep 1":1325,"Renilla normaliser, rep 1":1044,"activity call":"inactive"}
{"gene":"PGS1","reagent no.":1,"E2F firefly, rep 1":1.58e5,"Renilla normaliser, rep 1":7372,"activity call":"inactive"}
{"gene":"spict","reagent no.":1,"E2F firefly, rep 1":78032,"Renilla normaliser, rep 1":3856,"activity call":"inactive"}
